Laboratory results published in PubChem BioAssay AID540303 (National Center for Advancing Translational Sciences (NCATS), 2011).
The campaign covered roughly 330,000 compounds. About 1,000 (0.3%) were called active. The inconclusive results got no clear call from the source; some entries with a clear call stand among them for comparison. The call rests on the fitted dose curve; in most records, active means well fitted inhibition curve with a large enough effect; inconclusive means small, poorly fitted or top-dose-only effect; inactive means no such curve, though single readings can be large or run the other way; tested in mouse RAW 264.7 cells. Potencies of inconclusive entries are doubtful fits and often do not repeat.

Assay: qHTS for Inhibitors of Cell Surface uPA Generation; further: nearly all actives have a fitted effect of over 55% in size
Conditions: cell surface uPA generation assay; series mostly up to 38.3 µM
Procedure, shortened: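 Using RAW 264.7 macrophages, the screen measures whether compounds keep cellular ATP up by preventing uPA-driven LF translocation. Treatment lasted 24 h at 37 C, with a final top concentration of 38.3 uM, and luminescence was the readout.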
Potency means the concentration at half of the fitted maximal effect.

SMILES	Potency
Cc1nnc(N2CCCC(C(=O)NCc3cccc(F)c3)C2)c2nn(-c3ccccc3)c(C)c12 (stereo not given)	inconclusive: 12.6 µM [inhibitor, single point]
COc1cccc(/C=C/C(=O)Nc2cccc(C(C)=O)c2)c1OC	inconclusive: 8.91 µM [inhibitor, partial curve, poor fit]
O=C(Nc1ccc(F)cc1)N(Cc1cccs1)Cc1cc2cc3c(cc2[nH]c1=O)OCO3	inactive
CCOC(=O)c1sc(Nc2nc(C)cc(C)n2)nc1C	inconclusive: 0.891 µM [inhibitor, partial curve, poor fit]
Cc1ccc(Nc2c(-c3ccc(N(C)C)cc3)nc3ncccn23)cc1	inactive
COc1cc(NC(=O)c2cc(-c3ccc4c(c3)OCO4)on2)cc(OC)c1OC	inactive
CC1CCCC(=NNC(=O)C2COc3ccccc3O2)C1 (stereo not given)	inconclusive: 12.6 µM [inhibitor, single point]
COc1ccc(-n2sc3ccc(F)cc3c2=O)cc1	active: 10 µM
COc1cccc(N/C(=N/C(=S)Nc2ccc(C)cc2C)Nc2nc(C)cc(C)n2)c1	inactive
Cc1sc(NC(=S)NC(=O)c2ccccc2)c(C#N)c1C	inactive
O=C(Nc1nnc(-c2cccs2)o1)c1cccc(Oc2ccccc2)c1	inconclusive: 22.4 µM [inhibitor, single point]
Cc1ccc(C(=O)NC(=S)NNC(=O)c2ccccc2O)cc1	inactive
COC(=O)C1=C(C(=O)OC)[C@@H]2N(C)c3ccc(OC)cc3[C@@]23C[C@@H](C(=O)OC)N(C(=O)c2cc(C)oc2C)C3=N1	inconclusive: 5.01 µM [inhibitor, partial curve, poor fit]
CSc1nnc(NC(=O)C23CC4CC(CC(C4)C2)C3)s1	inactive
CCC1=NN(C(=O)c2ccccc2O)C(O)(c2ccccc2)C1 (stereo not given)	active: 11.2 µM
Cc1nc(SCC(=O)Nc2cccnc2Cl)nc(C)c1C	inactive
C[C@H](NC(=O)c1ccc(C(C)(C)C)cc1)C(=O)N1CCN(C/C=C/c2ccccc2)CC1	inconclusive: 12.6 µM [inhibitor, single point]
CCN1C(=O)S/C(=C/c2ccc(Sc3nc4ccccc4[nH]3)o2)C1=O	inactive
CC(=O)Nc1ccc2nc(NC(=O)c3ccco3)sc2c1	inconclusive: 11.2 µM [inhibitor, partial curve, poor fit]
O=C(NNC(=O)c1ccc([N+](=O)[O-])o1)c1ccccc1	inactive
CCN1CCN(c2cc(C)c3cc(NC(=S)NCc4cccs4)ccc3n2)CC1	inconclusive: 12.6 µM [inhibitor, single point]
Cc1cc(C)nc(SCc2nnc(SCC(N)=O)n2Cc2ccco2)n1	inactive
COc1ccc(-c2ccncc2)cc1OC	inconclusive: 4.47 µM [inhibitor, partial curve, poor fit]

Some values from the results shown.
In Potency, `COc1cccc(/C=C/C(=O)Nc2cccc(C(C)=O)c2)c1OC` is entered as inconclusive: 8.91 µM [inhibitor, partial curve, poor fit]
In Potency, `CCN1CCN(c2cc(C)c3cc(NC(=S)NCc4cccs4)ccc3n2)CC1` is entered as inconclusive: 12.6 µM [inhibitor, single point]
In Potency, `COc1cc(NC(=O)c2cc(-c3ccc4c(c3)OCO4)on2)cc(OC)c1OC` is entered as inactive

(listing goes on)

SMILES	Potency
CS(=O)(=O)Nc1cccc(C2=NN(C(=O)c3ccc(F)cc3)C(c3cccs3)C2)c1 (stereo not given)	inconclusive: 31.6 µM [inhibitor, partial curve, poor fit]
Cc1ccc(N2C(S)=C(C#N)C(=O)NC2c2cccs2)cc1 (stereo not given)	inconclusive: 11.2 µM [inhibitor, single point]
COc1ccccc1NC(=O)CSc1nnc(-c2ccccc2)o1	inconclusive: 10 µM [inhibitor, single point]
COc1cc2cc(C(=O)N3CCOCC3)cc(-c3ccc(C)cc3)c2cc1OC	active: 4.47 µM
O=C(Cc1ccc([N+](=O)[O-])cc1)Nc1cccc(C(F)(F)F)c1	inconclusive: 12.6 µM [inhibitor, single point]
CC1(NC(=O)c2cc(Cl)nc3ccccc23)CCS(=O)(=O)C1 (stereo not given)	inactive
O=C(Nc1ccc(Cl)cc1)c1ccc(CN2CCc3ccccc3C2)cc1	inconclusive: 1 µM [inhibitor, full curve, poor fit]
CC(Sc1ccccn1)C(=O)Nc1ccc2c(c1)OCO2 (stereo not given)	inconclusive: 5.62 µM [inhibitor, partial curve, poor fit]
CCOC(=O)c1nnn(-c2ccc([N+](=O)[O-])cc2[N+](=O)[O-])c1C	active: 8.91 µM
Cc1ccccc1/C=C1\SC(=S)N(/N=C/c2cc([N+](=O)[O-])ccc2O)C1=O	inactive
CC(=Nc1ccc(Br)cc1)c1sc2ccccc2c1O	inconclusive: 6.31 µM [inhibitor, partial curve, poor fit]
Cc1ccc2[nH]c(=O)c(CN(c3cccc(C)c3C)S(=O)(=O)c3ccccc3)cc2c1	inconclusive: 1 µM [inhibitor, partial curve, poor fit]
O=C(Nc1nccs1)c1ccc2ccccc2c1	inconclusive: 3.98 µM [inhibitor, partial curve]
CC(=O)C1=C(O)C(=O)N(c2ccccn2)C1c1cccc(F)c1 (stereo not given)	inconclusive: 3.16 µM [inhibitor, partial curve, poor fit]
O=C1CCN(Cc2ccccc2)CCN1CCOc1ccccc1	inconclusive: 11.2 µM [inhibitor, single point]
Cc1cc(C(=O)COC(=O)c2cccn2C)c(C)n1Cc1ccco1	inconclusive: 8.91 µM [inhibitor, partial curve, poor fit]
O=C(CSc1ncnc2scc(-c3ccccc3)c12)N1CCN(c2ccccc2F)CC1	inactive
O=C(CSc1nc2c(sc3ccccc32)c(=O)n1-c1ccccc1)NCc1ccco1	inconclusive: 28.2 µM [inhibitor, single point]
O=C(NC(Nc1nc2ccc([N+](=O)[O-])cc2s1)(C(F)(F)F)C(F)(F)F)c1cccnc1	inconclusive: 11.2 µM [inhibitor, single point]
C/C(=N\NC(=O)c1cc(C(C)C)[nH]n1)c1ccco1	inconclusive: 15.8 µM [inhibitor, partial curve, poor fit]
C=CCNC(=O)c1ccc(NC(=O)C2=CSCCO2)cc1	inconclusive: 5.62 µM [inhibitor, partial curve, poor fit]
C[C@H](CO)N1C[C@H](C)[C@@H](CN(C)Cc2ccc(Cl)c(Cl)c2)Oc2c(NC(=O)CCC(F)(F)F)cccc2C1=O	inconclusive: 12.6 µM [inhibitor, single point]
